For the experiment, the target named is 猴TSLP-His (食蟹猴TSLP) (cynomolgus monkey). Briefly: ELISA, cynomolgus TSLP-His coated. On the technique in general: In an ELISA, binding on a coated surface is turned into a signal by an enzyme label.

These are yes or no findings as the source states them, for the method shown. Some binding calls cover weakened binding; strength is not graded here.

B1: 人源化抗TSLP单克隆抗体HA-Ⅰ (antibody, human IgG1, kappa, L234A L235A, V domains shown)
VH: QVQLVQSGAEVKKPGASVKVSCKASGYTFTSYWMHWVRQAPGQGLEWIGLIDPSDSDTTYNQKFKGRATLTVDTSTSTAYMELSSLRSEDTAVYYCSRSLDGYFDHWGQGTLVTVSS
VL: DIVMTQSPSSLSASVGDRVTITCRASENIYSYLAWYQQKPGKSPKLLVYNARTLAEGVPSRFSGSGSGTDFTLTISSLQPEDFATYYCQHHYGTPWTFGGGTKVEIKR
In the case of B1, the binding entry is reported as “binds”.

B2: 人源化抗TSLP单克隆抗体HA-Ⅱ (antibody, human IgG1, kappa, L234A L235A, V domains shown)
VH: QVQLVQSGAEVKKPGASVKVSCKASGYTFTSYWMHWVRQAPGQGLEWIGLIDPSDSDTTYNQKFKGRATLTVDTSTSTAYMELSSLRSEDTAVYYCSRSLDGYFDHWGQGTLVTVSS
VL: DIVMTQSPSSLSASVGDRVTITCRASENIYSYLAWYQQKPGKAPKLLVYNARTLAEGVPSRFSGSGSGTDFTLTISSLQPEDFATYYCQHHYGTPWTFGGGTKVEIKR
Turning to B2, the binding result is “binds”.

Source of the values: CN117990807A.
